Test results: paper PMC6166128
No constants are given. Whether binding was seen depends on the method and setting. Binding seen in cells or lysates may run through a third protein. These calls come from enrichment with a bait or labelling near it, and not all partners need be listed. For some assays here: Where a sequence is shown, tags or fusion partners need not be part of it.

Protein sequences, listed by entry. Tags and fused reporters are not part of them. Lines headed by an entry give the natural chain unless they say otherwise; changes in a name come on top. Residues count along the entry.
UniProt P29469, residues 1-200: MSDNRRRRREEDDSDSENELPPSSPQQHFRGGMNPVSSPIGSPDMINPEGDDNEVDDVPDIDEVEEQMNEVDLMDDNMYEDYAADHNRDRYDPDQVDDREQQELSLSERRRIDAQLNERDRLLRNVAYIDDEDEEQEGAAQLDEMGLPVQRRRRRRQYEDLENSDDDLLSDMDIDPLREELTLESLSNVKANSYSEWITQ
UniProt P02293: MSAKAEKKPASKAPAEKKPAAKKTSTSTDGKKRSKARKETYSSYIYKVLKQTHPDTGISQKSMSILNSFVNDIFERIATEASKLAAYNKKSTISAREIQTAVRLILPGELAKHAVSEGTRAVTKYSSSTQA
UniProt P38110: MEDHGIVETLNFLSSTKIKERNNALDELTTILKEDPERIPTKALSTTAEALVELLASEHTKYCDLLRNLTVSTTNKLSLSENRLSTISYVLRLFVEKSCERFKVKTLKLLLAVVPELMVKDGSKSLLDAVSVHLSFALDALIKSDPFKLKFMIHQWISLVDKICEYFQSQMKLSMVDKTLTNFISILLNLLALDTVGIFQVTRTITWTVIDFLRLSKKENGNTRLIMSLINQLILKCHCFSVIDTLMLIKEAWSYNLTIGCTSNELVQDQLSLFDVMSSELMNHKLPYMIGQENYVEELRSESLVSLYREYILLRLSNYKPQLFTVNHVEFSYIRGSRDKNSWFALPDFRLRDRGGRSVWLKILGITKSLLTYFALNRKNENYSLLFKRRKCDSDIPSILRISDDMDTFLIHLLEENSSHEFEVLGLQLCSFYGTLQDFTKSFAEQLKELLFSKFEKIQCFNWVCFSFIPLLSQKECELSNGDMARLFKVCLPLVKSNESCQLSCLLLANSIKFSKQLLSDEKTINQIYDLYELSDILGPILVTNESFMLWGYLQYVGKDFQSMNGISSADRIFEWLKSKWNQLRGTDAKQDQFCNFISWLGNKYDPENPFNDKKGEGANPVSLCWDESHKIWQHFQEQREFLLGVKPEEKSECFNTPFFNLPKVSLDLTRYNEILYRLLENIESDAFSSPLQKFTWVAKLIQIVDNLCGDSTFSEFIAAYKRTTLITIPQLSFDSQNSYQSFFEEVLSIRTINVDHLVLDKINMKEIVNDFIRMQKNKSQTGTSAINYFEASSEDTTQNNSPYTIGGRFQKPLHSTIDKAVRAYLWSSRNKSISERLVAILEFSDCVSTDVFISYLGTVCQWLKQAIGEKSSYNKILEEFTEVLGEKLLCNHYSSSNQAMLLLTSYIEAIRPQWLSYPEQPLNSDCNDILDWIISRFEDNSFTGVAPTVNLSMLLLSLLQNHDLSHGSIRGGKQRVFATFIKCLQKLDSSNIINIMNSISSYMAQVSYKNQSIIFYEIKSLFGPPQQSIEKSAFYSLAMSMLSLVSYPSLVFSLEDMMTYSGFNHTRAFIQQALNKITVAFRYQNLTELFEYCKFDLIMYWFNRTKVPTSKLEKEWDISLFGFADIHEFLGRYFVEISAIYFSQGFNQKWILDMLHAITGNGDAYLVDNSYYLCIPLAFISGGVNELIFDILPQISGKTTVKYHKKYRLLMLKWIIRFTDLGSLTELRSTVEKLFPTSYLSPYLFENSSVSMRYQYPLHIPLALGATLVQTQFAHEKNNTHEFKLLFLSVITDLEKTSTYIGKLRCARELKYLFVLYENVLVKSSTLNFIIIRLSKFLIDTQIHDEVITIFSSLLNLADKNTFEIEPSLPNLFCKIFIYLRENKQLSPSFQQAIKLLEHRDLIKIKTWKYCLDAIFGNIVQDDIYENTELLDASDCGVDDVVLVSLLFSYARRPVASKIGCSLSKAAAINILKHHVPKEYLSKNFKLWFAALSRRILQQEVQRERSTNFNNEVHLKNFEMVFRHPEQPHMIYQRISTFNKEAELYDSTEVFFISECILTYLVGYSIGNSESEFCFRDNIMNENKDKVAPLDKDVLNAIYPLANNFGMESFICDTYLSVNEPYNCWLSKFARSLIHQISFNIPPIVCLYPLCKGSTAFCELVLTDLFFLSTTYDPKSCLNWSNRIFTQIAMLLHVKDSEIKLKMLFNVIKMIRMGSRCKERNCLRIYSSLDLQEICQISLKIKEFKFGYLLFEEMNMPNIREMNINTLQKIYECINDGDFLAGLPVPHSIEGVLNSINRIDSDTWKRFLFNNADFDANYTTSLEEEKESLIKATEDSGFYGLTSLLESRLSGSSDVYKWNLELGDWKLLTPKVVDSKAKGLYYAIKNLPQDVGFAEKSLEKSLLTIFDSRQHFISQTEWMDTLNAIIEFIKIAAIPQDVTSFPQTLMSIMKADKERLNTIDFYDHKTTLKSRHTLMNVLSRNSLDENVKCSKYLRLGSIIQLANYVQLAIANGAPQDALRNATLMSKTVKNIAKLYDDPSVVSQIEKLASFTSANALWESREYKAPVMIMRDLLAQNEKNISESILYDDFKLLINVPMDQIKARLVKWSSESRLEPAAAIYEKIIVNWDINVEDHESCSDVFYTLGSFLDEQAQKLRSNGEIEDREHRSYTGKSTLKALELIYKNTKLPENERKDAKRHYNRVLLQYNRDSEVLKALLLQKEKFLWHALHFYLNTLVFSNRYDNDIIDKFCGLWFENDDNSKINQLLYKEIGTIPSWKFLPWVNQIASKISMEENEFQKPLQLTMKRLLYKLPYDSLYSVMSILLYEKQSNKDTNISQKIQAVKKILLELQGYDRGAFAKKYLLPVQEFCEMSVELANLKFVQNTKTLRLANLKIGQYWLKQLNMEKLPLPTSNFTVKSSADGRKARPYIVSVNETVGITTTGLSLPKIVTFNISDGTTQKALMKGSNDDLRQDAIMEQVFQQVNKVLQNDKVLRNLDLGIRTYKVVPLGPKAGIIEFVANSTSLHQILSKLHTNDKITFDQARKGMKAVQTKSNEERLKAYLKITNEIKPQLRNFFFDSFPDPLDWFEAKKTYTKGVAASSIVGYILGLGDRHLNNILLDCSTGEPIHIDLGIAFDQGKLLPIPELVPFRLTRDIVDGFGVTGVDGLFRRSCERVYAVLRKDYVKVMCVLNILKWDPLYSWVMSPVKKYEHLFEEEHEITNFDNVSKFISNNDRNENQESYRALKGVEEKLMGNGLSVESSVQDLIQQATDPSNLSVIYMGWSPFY

T1: Pol1NT (first 351 amino acids of budding yeast Pol1 fused to Protein A) (S. cerevisiae) (UniProt P13382)
T1 sequence: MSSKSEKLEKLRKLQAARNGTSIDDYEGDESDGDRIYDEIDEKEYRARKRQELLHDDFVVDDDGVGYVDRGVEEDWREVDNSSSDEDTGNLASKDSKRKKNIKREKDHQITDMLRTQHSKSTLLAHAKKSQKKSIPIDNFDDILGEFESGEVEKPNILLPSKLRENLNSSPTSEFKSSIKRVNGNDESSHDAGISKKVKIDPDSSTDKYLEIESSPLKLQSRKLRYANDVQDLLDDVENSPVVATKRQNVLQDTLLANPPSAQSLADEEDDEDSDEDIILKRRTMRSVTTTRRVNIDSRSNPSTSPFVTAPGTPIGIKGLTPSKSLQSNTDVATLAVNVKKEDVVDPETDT


Assays:
[1] = target: T1, Pol1NT (first 351 amino acids of budding yeast Pol1 fused to Protein A) (S. cerevisiae); test: affinity purification with mass spectrometry; Protein A-tagged fragments isolated on IgG-coated magnetic beads from G2-M yeast extracts, +DNase; gel lane cut into 40 bands, Orbitrap Velos
[2] = target: Mcm2NT (Mcm2 1–200 fused to Protein A) (S. cerevisiae) (UniProt P29469); test: as above
[3] = target: T1, Pol1NT (first 351 amino acids of budding yeast Pol1 fused to Protein A) (S. cerevisiae); test: affinity purification with mass spectrometry; Protein A-tagged fragments isolated on IgG-coated magnetic beads from G2-M yeast extracts, −DNase; gel lane cut into 40 bands, Orbitrap Velos
[4] = target: T1, Pol1NT (first 351 amino acids of budding yeast Pol1 fused to Protein A) (S. cerevisiae); test: affinity purification with mass spectrometry; Protein A-tagged fragments isolated on IgG-coated magnetic beads from G2-M yeast extracts, +DNase; gel lane cut into 40 bands, Orbitrap Velos; remark: listed apart in the source

binding [1] | binding [2] | binding [3] | binding [4] | Molecule
binds | binds |  |  | Histone H2B (budding yeast) (from UniProt P02293)
binds |  | binds |  | Tel1 checkpoint kinase (budding yeast) (from UniProt P38110 1-2787)
 |  |  | binds | Spt5 (budding yeast) (protein, UniProt P27692 1-1063) MSDNSDTNVSMQDHDQQFADPVVVPQSTDTKDENTSDKDTVDSGNVTTTESTERAESTSNIPPLDGEEKEAKSEPQQPEDNAETAATEQVSSSNGPATDDAQATLNTDSSEANEIVKKEEGSDERKRPREEDTKNSDGDTKDEGDNKDEDDDEDDDDDDDDEDDDDEAPTKRRRQERNRFLDIEAEVSDDEDEDEDEEDSELVREGFITHGDDEDDEASAPGARRDDRLHRQLDQDLNKTSEEDAQRLAKELRERYGRSSSKQYRAAAQDGYVPQRFLLPSVDTATIWGVRCRPGKEKELIRKLLKKKFNLDRAMGKKKLKILSIFQRDNYTGRIYIEAPKQSVIEKFCNGVPDIYISQKLLIPVQELPLLLKPNKSDDVALEEGSYVRIKRGIYKGDLAMVDQISENNLEVMLKIVPRLDYGKFDEIDPTTQQRKSRRPTFAHRAPPQLFNPTMALRLDQANLYKRDDRHFTYKNEDYIDGYLYKSFRIQHVETKNIQPTVEELARFGSKEGAVDLTSVSQSIKKAQAAKVTFQPGDRIEVLNGEQRGSKGIVTRTTKDIATIKLNGFTTPLEFPISTLRKIFEPGDHVTVINGEHQGDAGLVLMVEQGQVTFMSTQTSREVTITANNLSKSIDTTATSSEYALHDIVELSAKNVACIIQAGHDIFKVIDETGKVSTITKGSILSKINTARARVSSVDANGNEIKIGDTIVEKVGSRREGQVLYIQTQQIFVVSKKIVENAGVFVVNPSNVEAVASKDNMLSNKMDLSKMNPEIISKMGPPSSKTFQQPIQSRGGREVALGKTVRIRSAGYKGQLGIVKDVNGDKATVELHSKNKHITIDKHKLTYYNREGGEGITYDELVNRRGRVPQARMGPSYVSAPRNMATGGIAAGAAATSSGLSGGMTPGWSSFDGGKTPAVNAHGGSGGGGVSSWGGASTWGGQGNGGASAWGGAGGGASAWGGQGTGATSTWGGASAWGNKSSWGGASTWASGGESNGAMSTWGGTGDRSAYGGASTWGGNNNNKSTRDGGASAWGNQDDGNRSAWNNQGNKSNYGGNSTWGGH
